Two substances from PMC8287961 can be followed below.

Sequences of proteins named here, by UniProt entry; tags and fusion partners are left off.
UniProt P83917: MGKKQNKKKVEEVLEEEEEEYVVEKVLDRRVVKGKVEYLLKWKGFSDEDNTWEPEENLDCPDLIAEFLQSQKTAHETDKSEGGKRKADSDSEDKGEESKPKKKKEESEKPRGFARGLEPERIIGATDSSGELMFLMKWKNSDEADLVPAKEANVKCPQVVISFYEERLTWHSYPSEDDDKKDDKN
UniProt Q61686: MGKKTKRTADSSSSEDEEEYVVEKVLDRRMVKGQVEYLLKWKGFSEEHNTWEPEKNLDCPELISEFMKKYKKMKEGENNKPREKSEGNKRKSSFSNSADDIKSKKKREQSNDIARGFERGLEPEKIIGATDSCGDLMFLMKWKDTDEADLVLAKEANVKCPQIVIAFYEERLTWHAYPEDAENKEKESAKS
UniProt Q6Q783: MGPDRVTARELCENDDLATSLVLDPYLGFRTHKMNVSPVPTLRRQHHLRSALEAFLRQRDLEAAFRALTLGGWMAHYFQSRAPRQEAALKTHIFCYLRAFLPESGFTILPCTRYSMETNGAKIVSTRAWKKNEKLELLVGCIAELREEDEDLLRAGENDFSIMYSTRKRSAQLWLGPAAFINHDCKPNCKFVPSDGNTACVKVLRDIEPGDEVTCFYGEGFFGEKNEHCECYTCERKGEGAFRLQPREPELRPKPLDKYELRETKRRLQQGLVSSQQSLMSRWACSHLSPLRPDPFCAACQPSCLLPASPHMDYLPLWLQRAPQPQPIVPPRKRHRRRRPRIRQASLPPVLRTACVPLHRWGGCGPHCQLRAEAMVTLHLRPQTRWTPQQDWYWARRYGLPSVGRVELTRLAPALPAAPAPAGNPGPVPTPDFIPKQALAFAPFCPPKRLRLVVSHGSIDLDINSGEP

Results are given in words; binding and its absence hold for the method and conditions named. In cells and extracts the contact can be indirect. Here binding means that the protein was enriched with, or labelled near, the bait; the list need not be complete.

The target in this experiment is Heterochromatin binding protein HP1β (endogenous, mESCs and EpiLCs) (mouse (endogenous in E14 mESCs)) (UniProt P83917). In words: affinity purification with mass spectrometry; ChIP-MS: formaldehyde-crosslinked, MNase-digested chromatin of wt against HP1β−/− E14 mESCs (naive, 0 h) and EpiLCs (48 h ActivinA/FGF); anti-HP1β antibody (Abcam), protein A/G beads; washes with 140 mM and 500 mM NaCl, 1% Triton X-100.

As for “HP1α (endogenous, mESCs) (from UniProt Q61686 1-191)”, the binding result is reported as “binds”. “SUV420H2 (endogenous, mESCs/EpiLCs) (from UniProt Q6Q783 1-468)”: the binding result is listed as “binds”.
